The assay is described as follows: qHTS Assay for Modulators of Lamin A Splicing. Particulars: HeLa LMNA splicing GFP/RFP minigene ratio, 48 h. Summed up: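 Read-out is the ratio of GFP to DsRed2 object intensity, acquired by 488 nm laser-scanning cytometry on HeLa lamin A-EGFP minigene reporter cells. Compound incubation 48 hrs at 37 °C in Opti-MEM with 2% FBS; DMSO 0.5% final.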
On the technique in general: qHTS replaces the single test concentration by a dilution series.

Setting [1] is: measured here: RFP viability control channel.
Where [2] appears, read: measured here: GFP splicing reporter channel.

Usually AC50 stands for the concentration at which the activity in the assay is half-maximal.

Structures are written as SMILES. This is one part of the list. Further columns of the screen follow, without active or inactive calls. Compounds called inactive in the main read-out are mostly missing here. The note in brackets gives the kind of curve behind each potency; many fits are weak.

As for `O=C(NNC(=S)Nc1ccc(Br)cc1Cl)c1ccco1`, under setting [1], the AC50 was 35.5 µM [rising, single point].

`N#CC(c1ccc(=O)[nH]n1)c1ccc(Cl)cc1Cl` (stereo unspecified): the AC50 under setting [1] is 2.51 µM [falling, single point].

As for `O=C(O)c1cccc(N/N=C/c2sc(N3CCOCC3)nc2-c2ccccc2)c1`, the AC50 under setting [1] is 7.94 µM [falling, partial curve].

As for `O=C(CCN1CCN(c2ccc(F)cc2)CC1)Nc1ccc(F)cc1`, the AC50 reads like this: under setting [2], 22.4 µM [rising, single point]; under setting [1], 31.6 µM [rising, single point].

With `Cc1ccc(-c2nn(C)c(=O)c3ccccc23)cc1CNC(=O)CSc1nc2ccccc2o1`, the concentration at half-maximal activity (AC50) under setting [1] is 12.6 µM [rising, single point].

Take `CCCCNCc1cc(OC)c(OCC(N)=O)cc1Br`: the AC50 under setting [1] was 25.1 µM [falling, partial curve, poor fit].

Turning to `N=C(N)c1ccc(/C=C/c2ccc(C(=N)N)cc2O)cc1`, the AC50 under setting [2] is 20 µM [falling, single point].

Take `CC(CC(=O)O)CC(=O)Nc1cc([N+](=O)[O-])ccc1O` (stereo unspecified): the half-maximal activity concentration (AC50) was 1.78 µM [falling, full curve, poor fit] under setting [2] and 5.01 µM [falling, full curve, poor fit] under setting [1].

For the molecule `CSc1c(-c2ccccn2)c(N)nn1C(=O)C1CC1`, the AC50 under setting [1] is 0.0355 µM [falling, full curve, poor fit].

For the molecule `O=C(Cc1ccc(-c2ccccc2)cc1)NCc1cccnc1`, the AC50 under setting [1] was 3.55 µM [falling, single point].

For `Cc1ccc(S(=O)(=O)NCc2ccc(C(=O)N3CCN(c4ccccn4)CC3)cc2)cc1`, the AC50 by setting is: under setting [2], 11.2 µM [rising, partial curve]; under setting [1], 20 µM [rising, partial curve].

Regarding `O=C(OCc1nnc(-c2ccccc2)o1)c1cn(-c2ccccc2)nc1-c1ccccc1`, the half-maximal activity concentration (AC50) under setting [2] is 12.6 µM [rising, single point] and the concentration at half-maximal activity (AC50) under setting [1] is 31.6 µM [rising, single point].

Consider `CCn1c(SCC(=O)NCc2ccco2)nnc1C(C)C`, for which the AC50 under setting [1] is 35.5 µM [falling, single point].

In the case of `Cc1ccc2nc(N3CCN(C(=O)c4cccs4)CC3)c(C#N)cc2c1`, the AC50 under setting [1] is 22.4 µM [rising, single point].

Take `O=C(Nc1ccccc1)N1CCCN(c2c(Cl)cncc2Cl)CC1`: the AC50 under setting [2] is 3.55 µM [rising, single point].

For `Clc1ccc(CSc2ccc(-c3ccccn3)nn2)cc1`, the AC50 under setting [2] was 35.5 µM [rising, single point] and the AC50 under setting [1] is 35.5 µM [rising, single point].

For the molecule `O=c1oc2ccccc2n1CSc1nc2ccccc2s1`, the AC50 runs as follows: under setting [2], 11.2 µM [rising, partial curve, poor fit]; under setting [1], 15.8 µM [rising, single point].

Consider `CCCC(=O)Nc1ccccc1NC(=O)c1ccc(OC(C)=O)cc1`, for which the AC50 under setting [2] was 31.6 µM [falling, partial curve, poor fit].

Turning to `CNC(=S)N/N=C/c1ccc(N2CCOCC2)s1`, the AC50 reads like this: under setting [2], 0.282 µM [falling, full curve, poor fit]; under setting [1], 0.355 µM [falling, full curve, poor fit].

Regarding `CCCCc1ccc(Nc2cc(C)nc(-n3nc(C)cc3C)n2)cc1`, the AC50 under setting [1] was 10 µM [falling, partial curve].

For the molecule `Cc1cc(C)n(CCN(C)Cc2nc(Cc3ccccc3F)no2)n1`, the AC50 under setting [1] was 0.00447 µM [falling, full curve, poor fit].

`O=C(CSc1nnc(CNC(=O)c2ccccc2F)o1)c1ccc(Cl)cc1`: the concentration at half-maximal activity (AC50) under setting [1] was 31.6 µM [rising, single point].

Turning to `CSc1nnc2c(n1)c(C)nn2-c1cccc(C)c1`, the AC50 under setting [1] was 6.31 µM [rising, single point].

With `O=C(NCC(c1cccnc1)N1CCc2ccccc2C1)C(=O)Nc1ccccc1F` (stereo unspecified), the AC50 reads like this: under setting [2], 6.31 µM [rising, partial curve, poor fit]; under setting [1], 12.6 µM [rising, partial curve, poor fit].

Take `CSc1ccc(CNC(=O)Cn2c(-c3cccs3)cc3cc(F)ccc32)cc1`: the AC50 under setting [1] is 2 µM [rising, partial curve].

In the case of `O=C(/C=C\c1ccc2c(c1)OCO2)NC1CC(=O)N(c2ccccc2)C1` (stereo unspecified), the AC50 under setting [2] was 0.00891 µM [rising, full curve, poor fit].

Regarding `CC(=O)O[C@]1(C(C)=O)CC[C@H]2[C@@H]3C=C(Cl)C4=CC(=O)[C@@H]5C[C@@H]5[C@]4(C)[C@H]3CC[C@@]21C`, the AC50 under setting [1] was 20 µM [rising, single point].

Turning to `O=C(/C=C/c1ccc(Cl)cc1Cl)NCc1ccncc1`, the AC50 under setting [2] was 4.47 µM [rising, partial curve] and the AC50 under setting [1] was 11.2 µM [rising, partial curve].

As for `COc1ccc(CN(C)CC(=O)Nc2cc3oc4ccccc4c3cc2OC)c(OC)c1`, the AC50 is 17.8 µM [rising, partial curve, poor fit] under setting [2] and 22.4 µM [rising, partial curve] under setting [1].

As to `NC(=O)COC(=O)c1ccc(S(=O)(=O)NCc2ccco2)cc1`, the half-maximal activity concentration (AC50) under setting [1] is 0.562 µM [rising, partial curve, poor fit].

For `COc1ccc(NC(=O)c2nn(C)c(=O)c3ccccc23)cc1S(=O)(=O)Nc1ccccc1Cl`, under setting [1], the AC50 was 0.0891 µM [rising, single point].

Turning to `COc1ccc(CC(=O)Nc2ncc([N+](=O)[O-])s2)cc1OC`, the half-maximal activity concentration (AC50) runs as follows: under setting [2], 3.16 µM [falling, full curve]; under setting [1], 1.26 µM [falling, full curve].

As to `COc1ccc(NC(=O)COc2nsnc2N2CCCCC2)cc1`, the AC50 was 11.2 µM [rising, partial curve, poor fit] under setting [2] and 14.1 µM [rising, partial curve] under setting [1].

On to `Cn1c(SCc2ccc(C#N)cc2)nnc1-c1cccc(Cl)c1`, for which the AC50 under setting [2] was 0.00447 µM [rising, full curve, poor fit].

As to `CCc1ccc(C2=NN(S(C)(=O)=O)C(c3cccs3)C2)cc1` (stereo unspecified), the AC50 under setting [1] is 31.6 µM [rising, single point].

Regarding `CCc1cccc2c(C#N)cn(CC(=O)NCCOC)c12`, the AC50 under setting [2] is 0.0355 µM [falling, full curve, poor fit].

For the molecule `c1ccc(C2=Nc3ccccc3SC2c2nc3ccccc3[nH]2)cc1` (stereo unspecified), the AC50 is 17.8 µM [rising, partial curve, poor fit] under setting [2] and 14.1 µM [rising, partial curve] under setting [1].

Take `NC(=O)c1ccc(Oc2ccc(Cl)c3ccccc23)c([N+](=O)[O-])c1`: the half-maximal activity concentration (AC50) was 4.47 µM [rising, partial curve] under setting [2] and 14.1 µM [rising, single point] under setting [1].

For the molecule `O=C(CSc1nnc(-c2cccs2)o1)N1CCCc2ccccc21`, the AC50 under setting [2] is 11.2 µM [rising, partial curve] and the AC50 under setting [1] was 10 µM [rising, single point].

In the case of `O=C1N(c2ccccc2)C[C@@H]2C[C@@H](c3cccs3)N3CCC[C@@]123`, the AC50 reads like this: under setting [2], 15.8 µM [falling, partial curve, poor fit]; under setting [1], 11.2 µM [falling, partial curve].

Take `Cc1ccc(NC(=O)C2CCCN(c3ncnc4onc(C)c34)C2)c(Cl)c1` (stereo unspecified): the AC50 under setting [2] is 0.00562 µM [falling, full curve].

Turning to `COc1ccc(-c2csc(Nc3cccnc3)n2)cc1`, the AC50 by setting is: under setting [2], 10 µM [rising, partial curve, poor fit]; under setting [1], 31.6 µM [rising, single point].

`O=C(O)C1CCCN(CCC=C(c2ccccc2)c2ccccc2)C1` (stereo unspecified): the half-maximal activity concentration (AC50) under setting [1] is 0.0794 µM [falling, full curve, poor fit].

For `CCSc1nc(N)c(C#N)c(-c2ccco2)c1C#N`, the AC50 under setting [1] was 15.8 µM [rising, partial curve, poor fit].

`Cc1cc2cc(CNC(=O)c3ccc(C)c([N+](=O)[O-])c3)ccc2[nH]1`: under setting [1], the half-maximal activity concentration (AC50) was 17.8 µM [rising, single point].

Consider `Cc1ccccc1Nc1nc(N)nc(CN2CCN(Cc3ccc4c(c3)OCO4)CC2)n1`, for which the AC50 under setting [2] was 2.82 µM [falling, partial curve, poor fit] and the AC50 under setting [1] was 3.16 µM [falling, partial curve, poor fit].

Turning to `CCOC(=O)c1[nH]c2ccccc2c1NC(=S)Nc1cc(C)ccc1C`, the AC50 is 14.1 µM [rising, single point] under setting [2] and 11.2 µM [rising, partial curve] under setting [1].

On to `COc1ccc(COCCN2CCN(S(=O)(=O)c3ccc(C)cc3)CCC2=O)cc1`, for which, under setting [1], the concentration at half-maximal activity (AC50) is 11.2 µM [rising, partial curve].

As for `CCOc1ccc(C2C(=O)N(C3CCCCCC3)CC(=O)N2Cc2ccc(F)cc2)cc1OC` (stereo unspecified), under setting [2], the AC50 was 35.5 µM [falling, partial curve, poor fit].

As to `CC(=O)OC[C@H]1O[C@@H](n2ncc(=O)[nH]c2=O)[C@H](OC(C)=O)[C@@H]1OC(C)=O`, the AC50 by setting is: under setting [2], 0.562 µM [rising, full curve, poor fit]; under setting [1], 0.562 µM [rising, full curve].

In the case of `CSc1ccccc1C(=O)N1CCN(c2ncccn2)CC1`, the AC50 under setting [1] is 0.0251 µM [falling, full curve, poor fit].

Regarding `COc1cc(/C=N/NC(=O)c2ccoc2C)cc(OC)c1O`, the AC50 under setting [2] is 7.94 µM [falling, partial curve].

For `C/C=C/Cn1c(SCc2ccc(Cl)cc2)nc2c1c(=O)[nH]c(=O)n2C`, the AC50 under setting [1] was 14.1 µM [rising, single point].

`COc1cccc2c(=O)ccoc12`: the half-maximal activity concentration (AC50) under setting [1] is 12.6 µM [rising, single point].

As to `C=CCN1c2ccccc2[C@]23C[C@@H](C(=O)OC)N(C(C)=O)C2=NC(C(=O)OC)=C(C(=O)OC)[C@H]13`, the AC50 is, setting by setting: under setting [2], 0.000794 µM [rising, full curve, poor fit]; under setting [1], 0.708 µM [rising, partial curve, poor fit].

Source of the values: PubChem BioAssay AID1487 (National Center for Advancing Translational Sciences (NCATS), 2009).
